Experimental data from publication PMC12595034.

By UniProt entry, the sequences of proteins in these tests, tags left out. Where a name states a change or a piece, a line headed by the entry shows the natural chain unless it says otherwise.
UniProt F4IWJ9: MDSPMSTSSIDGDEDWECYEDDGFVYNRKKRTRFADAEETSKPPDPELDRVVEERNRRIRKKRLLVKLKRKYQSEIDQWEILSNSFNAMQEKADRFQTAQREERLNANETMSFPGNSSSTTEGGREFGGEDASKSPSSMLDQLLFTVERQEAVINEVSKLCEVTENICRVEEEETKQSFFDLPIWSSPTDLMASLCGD

What was measured:
Assay in all cases: affinity purification with mass spectrometry; GSrhino-tagged bait expressed in Arabidopsis cell suspension culture; pull-down in triplicate for each bait, on-bead digest, Q Exactive; hits filtered by NSAF against a large control AP-MS dataset of non-related baits
[1] = target: NGSrhino-KNL1 (Arabidopsis thaliana)
[2] = target: DSN1-CGSrhino (Arabidopsis thaliana) (UniProt F4IWJ9)
[3] = target: NGSrhino-DSN1 (Arabidopsis thaliana) (UniProt F4IWJ9)
[4] = target: CSM1-CGSrhino (Arabidopsis thaliana)
[5] = target: NGSrhino-CSM1 (Arabidopsis thaliana)

B1: ESD4 (protein, UniProt Q94F30 1-489)
chain: MGAVAINRKRSDESFNFINQQSTNPLRNSPYFQASKKRRFSFAMSEDSGKPASSNPTISRISRYPDAKAPLRREIHAPSRGILRYGKAKSNDYCEKDANFFVRKYDDAKRSALEALRFVNKGKDFVDLGDEVEKEEVVSDDSSVQAIEVIDCDDDEEKKNLQPSFSSGVTDVKKGENFRVEDTSMMLDSLSLDRDVDNDASSLEAYRKLMQSAEKRNSKLEALGFEIVLNEKKLSLLRQSRPKTVEKRVEVPREPFIPLTEDEEAEVYRAFSGRNRRKVLATHENSNIDITGEVLQCLTPSAWLNDEVINVYLELLKERETREPKKYLKCHYFNTFFYKKLVSDSGYNFKAVRRWTTQRKLGYALIDCDMIFVPIHRGVHWTLAVINNRESKLLYLDSLNGVDPMILNALAKYMGDEANEKSGKKIDANSWDMEFVEDLPQQKNGYDCGMFMLKYIDFFSRGLGLCFSQEHMPYFRLRTAKEILRLRAD
- binding [1]: binds
- binding [2]: binds
- binding [3]: binds
- binding [4]: binds
- binding [5]: binds

B3: BUB3.3 (protein, UniProt F4I241 1-314)
chain: MSGDRLEFENPIEDAVSRLRFSPQSNNLLVASWDSYLRLYDVESSSLSLELNSQAALLDCCFENESTSFTSGSDGFIRRYDLNAGTVDTIGRHDDISTSIVYSYEKGEVISTGFDEKIKFWDTRQRESLVFSTDAGGAVGCVTVSGNNLVVCVDASMHIYDLRNLDEAFQSYASQVEVPIRCITSVPYSRGYAVGSVDGRVAVDFPNTSCSSEIKYSFRCHPKSRNGRLDGVCINAIEFSPCGSGTFVTGDNEGYVISWNAKSRRRLNELPRYSNSIASLAFDHTGELLAIASSHTYQDAKEKEEAPQVFIHRL
- binding [1]: binds
- binding [2]: binds
- binding [3]: binds

B4: BUB1MAD3/BMF1 (protein, UniProt F4IVI0 1-525)
chain: MTIGYRDAAGDPLFPWLMEIKNSMEDLYAGKNSGYDLDKLLFDCISTYKKDSRYRNDLRFLKIWFLYLEGREDFERVYREIEETEICKGHSLLYEWYAIFLEVKGLWRRANSVYQTGLSRKAEPFDRLKEAHSLFLQRISKRTKASSLEKVGDDAQATDLETGFVNPWETSTVNGLIHKIKPQLVKYDGYHVSNKVFPGKANLSSLQNYSRNKIIEIGGRKYQMKGCAGQGGFAQVFKAFIDSNPDEVVALKVQKPPFPWEFHMYRQLDCRIPDSQRSSFGLAQRVHVYSDYSILVCDYLSHGTLQDVINSYVVVGKSMEEVLCMYYTIEMLNMLETLHSVGIIHGDFKPDNLLIRYPPENLTETGFHEKTGSWSKKGLCLVDWGRGIDLSLFPRTTEFTGDCRTSGFRCVEMKEDKPWKFQVDTYGLCVIVHMMLHNVYMEIEKKQSLDGGYINMPRTSFKRYWKVDLWKELFTKLLNRETCEDDTETLRNLRKSMEEYICSDPKLMKKLNELLAKQRISLCSS
- binding [1]: binds
- binding [2]: binds
- binding [3]: binds
- binding [4]: binds
- binding [5]: binds

B8: CENPC (protein, UniProt Q66LG9 1-705)
chain: MADVSRSSSLYTEEDPLQAYSGLSLFPRTLKSLSNPLPPSYQSEDLQQTHTLLQSMPFEIQSEHQEQAKAILEDVDVDVQLNPIPNKRERRPGLDRKRKSFSLHLTTSQPPPVAPSFDPSKYPRSEDFFAAYDKFELANREWQKQTGSSVIDIQENPPSRRPRRPGIPGRKRRPFKESFTDSYFTDVINLEASEKEIPIASEQSLESATAAHVTTVDREVDDSTVDTDKDLNNVLKDLLACSREELEGDGAIKLLEERLQIKSFNIEKFSIPEFQDVRKMNLKASGSNPPNRKSLSDIQNILKGTNRVAVRKNSHSPSPQTIKHFSSPNPPVDQFSFPDIHNLLPGDQQPSEVNVQPIAKDIPNTSPTNVGTVDVASPFNDSVVKRSGEDDSHIHSGIHRSHLSRDGNPDICVMDSISNRSSAMLQKNVDMRTKGKEVDVPMSESGANRNTGDRENDAEINEETDNLERLAECASKEVTRPFTVEEDSIPYQQGASSKSPNRAPEQYNTMGGSLEHAEHNQGLHEEENVNTGSASGLQVENAPEVHKYSHKQTNKRRKRGSSDSNVKKRSKTVHGETGGDKQMKTLPHESRAKKQTKGKSNEREEKKPKKTLTHEGKLFSCRKSLAAAGTKIEGGVRRSTRIKSRPLEYWRGERFLYGRIHESLTTVIGIKYASPGEGKRDSRASKVKSFVSDEYKKLVDFAALH
- binding [1]: binds
- binding [4]: binds
- binding [5]: binds

B9: MIS12 (protein, UniProt Q2V0Z5 1-238)
chain: MEGSKSEAVFDSMNLNPQIFINEAINSVEDYVDQAFDFYARDASKSLKIKGSDKQKSQALSNGIARVRGLLLSVIDNRLKLWESYSLRFCFAVPDGFVLPKSEESSSVHQDGLYDLELDAELDSLRDKLNVVGKRSVELDSELQALERSSVSRERSLRLVNEALELYDESSMDEIFKEMTKMASELRASVERLKTRRMKASESAKVKRLKNHGKEFSAMTFDGKLEDLEKFQAELRKM
- binding [1]: binds
- binding [2]: binds
- binding [3]: binds
- binding [4]: binds
- binding [5]: binds

Second part, the binder after the results:

- binding [1]: binds
- binding [4]: binds
- binding [5]: binds
B2: SPC25 (protein, UniProt Q93VK9 1-315)
chain: MEQISNIAGGDTTKETMASLGLICEKDIHEQRLKIDSFIASPFRRSMNSLVERAQATAQSQVELMNLKADLREAEDELVKVLAVKTRKEARQMGIRDSISATQSRIEVLRRNLQLQKSKKDDSVRIISQQLQALSKSKDNAGKVTEDKADIHEAISWYNHALGFHVEAGHGVKFTFTNIDAKRPTREFSFTVHYGNDIYTLLDSDLQLDYINEMVQELNKTNDLFRFVRLMREQFLKSTLSELPTHSGQLQQETSAISASAPAISFSTDTNMSTPENKRSKVQVNRRQKRGSESPLLAPVSTSATRRSSRFKGKK

- binding [1]: binds
- binding [4]: binds
- binding [5]: binds
B5: MUN/SPC24 (protein, UniProt Q67XT3 1-201)
chain: MGNASENFDIEDLMSYGDDLINLLNVKNGFDIISQSSEQFKALNFACHEDFNQIQGSIEDCKTKLYACKKKTEEAYSDIAAEDEIERLQKELDEEMEREFKLKDELRLVADELKDLNAQLSSIDEHKQSTKRKVRDDLRAEKKLSMYASVTNVIPDIDDPSKISGYMVDREKRLIEKFQFETNKMTAYETCNSIWSIINKQ

- binding [1]: binds
- binding [2]: binds
- binding [3]: binds
- binding [4]: binds
- binding [5]: binds
B6: NDC80 (protein, UniProt Q9M1G5 1-568)
chain: MRGGAAGKRRTTVGFGGAPPPPPPSIEQQRHLFNSRDSDASFASSRPSSIGLGGRGASDDRSSMIRFINAFLSTHNFPISIRGNPVPSVKDISETLKFLLSALDYPCDSIKWDEDLVFFLKSQKCPFKITKSSLKAPNTPHNWPTVLAVVHWLAELARFHQHLVSNSTSVPEDNSMNFFAIQSFGHFIRGEDDKVNDLDSQFLGKLEAEKTSVAETISGCEKISGELEAKLESLRKGPSKKESLEKVKADLENDVNKFRTIVVEYTDRNPAMEKVVEEKAKELKAKEEERERISVENKELKKSVELQNFSAADVNRMRRELQAVERDVADAEVARDGWDQKAWELNSQIRNQFHQIQTLAIDCNQALRRLKLDIQFAVNERGETPAAVMGVDYKSVVKPALCSLCDGIKGSSAEKVEELVTLQHHKSEMASKIESKRSLLGSIQLQINDLEEKMKLVKKETQELSTKCDLEAKTLVESVKAEALNLEVVEKEAAEFVKASELRLQEAVKESEEEVQACAAQLFALIDSISKQKEYMDSKISEIKTGVADTASAVSEIYKANFKKNLGI

- binding [4]: binds
B7: Mitochondrial ATPase (protein, UniProt P93303 1-158)
chain: MPQLDKFTYFSQFFWLCLFFFTFYIFICNDGDGVLGISRILKLRNQLLSHRGKTIRSKDPNSLEDLLRKGFSTGVSYMYASLFEVSQWCKAVDLLGKRRKITLISCFGEISGSRGMERNILYNISKSSPSNTGRWITCRNCRNDIMLIHVVHGQGSIK

- binding [1]: binds
- binding [2]: binds
- binding [3]: binds
- binding [4]: binds
- binding [5]: binds
B10: NUF2 (protein, UniProt Q8RXJ0 1-440)
chain: MSAYEYPRLSRSDIITALKDAQIASVTETDLKTPTSDFVSELYTRILIYLDALDEEEKGQVDFEALEQLENPDHHATSMQAMKLYCKVKDMLEMLDCPLPISFKDLLRPESSRTEFFISALLNYGLYKDSKMDLIRPKAEELGLLDEQRKQCEAKVAQLNAEIGEFDEAVERDLPFVQELEANIEQLNKKILELNNQQMSLRATFQKMREKSTQMDNEISKAEFDLVETVQENANLRSQIVQSPDKLQGALEEKKLVLGETKKAEQSAMVTFQEKAAILEVFEKALKKILKSSSQLQLINEQVTNAKTVEKEFKALKDKLSEDGVAYKSLEAKVVERERIVEQLNESLKQLEKEKAVMFDDWTKQLNELKVEVESRRRELETRQTNVESVVAMVDDNTAKTNQVRQSGEAKVKKLAAKYEEIVKQFHEYTVSFDAFLPSL

Results are given in words; binding and its absence hold for the method and conditions named. Binding seen in cells or lysates may run through a third protein. These calls come from enrichment with a bait or labelling near it, and not all partners need be listed. Each block holds one binder with its values, some of them ahead of it.
